Experimental data as given in PubChem BioAssay AID493014 (National Center for Advancing Translational Sciences (NCATS), 2011).
The other results are listed elsewhere or left out. Further columns of the screen follow, without active or inactive calls. Compounds called inactive in the main read-out are mostly missing here. Potencies come from curve fits of mixed quality, noted in brackets.

Test: qHTS Assay to Find Inhibitors of Chronic Active B-Cell Receptor Signaling
Details: ABC-DLBCL IkBa-CBG/CBR reporter, luminescence ratio (green luciferase fused to IkBa over red control in TMD8 lymphoma cells), 4 h
Procedure, shortened: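 Doxycycline induced both beetle luciferases in TMD8 lymphoma cells; IKK-driven degradation limits the IkappaBalpha-fused green signal, while red luminescence normalises for cell number and nonspecific effects. Compounds tested up to 46 uM, 4 hrs.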

[1] = measured here: CBR red luminescence, cell number
[2] = measured here: IkBa-CBG green luminescence

SMILES	AC50 [1]	AC50 [2]
COc1cccc(CNC(=O)CN2C(=O)N(c3cccc(Cl)c3)S(=O)(=O)c3ccccc32)c1OC	6.31 µM [rising, single point]	–
Cc1c(CN2CCC(CO)(CCOc3ccccc3)CC2)[nH]c2ccc(Cl)cc12	2.51 µM [falling, full curve, poor fit]	15.8 µM [rising, single point]
CCN1CCN(c2cc(C)c3cc(NC(=S)NCCCN4CCc5ccccc5C4)ccc3n2)CC1	8.91 µM [falling, partial curve, poor fit]	–
CCCOc1ccccc1Nc1nnc(C)c(=O)[nH]1	25.9 µM [falling, single point]	–
COc1ccc(CNC(=O)C2CCCN(S(=O)(=O)c3c(C)n[nH]c3C)C2)cc1 (configuration not stated)	0.231 µM [falling, full curve, poor fit]	–
CC(=O)N/C(=C\c1ccccc1)C(=O)OCC(=O)Nc1ccc(C)c(S(=O)(=O)N(C)C)c1	0.731 µM [rising, full curve, poor fit]	–
OC(CN1CCNCC1)Cn1c2ccccc2c2ccccc21 (configuration not stated)	35.5 µM [falling, single point]	–
CO/N=C(/CS(=O)(=O)c1ccc(C)cc1)c1ccc(OC)cc1	7.31 µM [falling, single point]	–
Cc1cc(N2CCN(C)CC2)nc2ccc(NC(=S)N3CCCCC3)cc12	5.01 µM [falling, full curve, poor fit]	–
CC1=C(C#N)c2nc(N)c(C#N)c(C)c2/C1=C\c1ccc(C)cc1	1.41 µM [falling, partial curve, poor fit]	–
CC(C)(C)c1ccc(C(=O)/C=C2\NC(=O)CS2)cc1	0.398 µM [rising, full curve, poor fit]	–
COC(=O)Nc1ccc(S(=O)(=O)Nc2ccc(O)cc2)cc1	32.6 µM [rising, single point]	–
Nc1nc(-c2ccccc2)[nH]c(=O)c1N	25.9 µM [falling, single point]	–
CCOC(=O)CCc1nc2ccccc2[nH]c1=O	1.3 µM [rising, full curve, poor fit]	–
Cc1c(Cl)cnc(NC(=O)COC(=O)c2ccc3c(c2)OCO3)c1Cl	6.51 µM [rising, single point]	–
CCC1(CC)Cc2ccccc2C(=O)N1	1 µM [rising, single point]	–
CC(C)CC(c1nnnn1Cc1cccs1)N1CCN(c2nc3ccccc3s2)CC1 (configuration not stated)	0.116 µM [falling, full curve, poor fit]	–
Cc1ccccc1-c1noc(-c2ccccc2C(=O)NCc2ccco2)n1	35.5 µM [rising, single point]	–
CCOC(=O)C1=C[C@]2(CC)CCCN3CCc4c(n1c1ccccc41)[C@@H]32	1.3 µM [rising, full curve]	–
C=C(C)C(=O)N1CC2(CC(c3cccc(NC(=O)CCCCC)c3)=NO2)C[C@H]1C(N)=O (some centres not stated)	10 µM [falling, partial curve]	–
CCc1c(O)nc(SCC(=O)Nc2ccccc2)n(C(C)CC)c1=O (configuration not stated)	32.6 µM [falling, single point]	–
CCOC(=O)C1=NOC(Cn2cc(C(C)=O)c(=O)[nH]c2=O)C1 (configuration not stated)	1.58 µM [rising, full curve, poor fit]	–

SMILES	AC50 [1]	AC50 [2]
Cc1ccc(NC(=O)NCc2ccc3c(c2)OCO3)cc1	10.3 µM [falling, partial curve]	–
O=C(/C=C/c1ccc(F)cc1)c1ccc(N2CCOCC2)cc1	2.24 µM [rising, partial curve, poor fit]	–
Cc1ccc(C(=O)OCC(=O)NCc2ccco2)cc1	4.61 µM [rising, full curve, poor fit]	–
Cc1ccsc1C(=O)OCC(=O)N(C)C1CCCCC1	25.9 µM [falling, single point]	–
CC(C)C(=O)n1nc(-c2cccnc2)nc1NCc1cccs1	15.8 µM [falling, partial curve]	–
Cc1ccc(/C=C/C(=O)OCC(=O)NCCc2ccc(S(N)(=O)=O)cc2)o1	29.1 µM [rising, single point]	–
CCOCCCNC(=O)c1cc2c(=O)n3cccc(C)c3nc2n1C	0.082 µM [rising, full curve, poor fit]	–
O=C(COc1ccc(Br)cc1CNC1CCCCC1)NCCc1ccccc1	35.5 µM [falling, single point]	–
COc1cccc2sc(N(CCCN(C)C)C(=O)c3sc4ccccc4c3Cl)nc12	18.4 µM [falling, single point]	–
O=C(Nc1ccc(F)cc1)c1ccccc1	8.2 µM [falling, partial curve, poor fit]	–
Cc1cc(C(=O)COc2ccccc2Cl)c(C)n1C1CC1	0.13 µM [rising, full curve, poor fit]	–
CCOC(=O)N1CCN(S(=O)(=O)c2ccc3c(c2)OCC(=O)N3)CC1	2.82 µM [falling, partial curve, poor fit]	–
COC(=O)[C@H](CC(C)C)NC(=O)NCCCc1ccccc1	18.4 µM [rising, partial curve, poor fit]	–
Cc1cnc(NC(=O)c2ccc3c(c2)C(=O)N(Cc2ccco2)C3=O)s1	35.5 µM [falling, single point]	–
COC(=O)C1=C(C)N(C)C(=O)NC1c1ccc([N+](=O)[O-])o1 (configuration not stated)	11.2 µM [rising, partial curve, poor fit]	–
Cc1cc(NC(=O)CCCSc2nc(-c3ccco3)cc(C(F)(F)F)n2)n(-c2ccccc2)n1	29.1 µM [falling, single point]	–
O=C(CCC1COc2ccccc2O1)Nc1cccnc1 (configuration not stated)	2.59 µM [rising, partial curve, poor fit]	–
O=C(/C=C/NNC(=O)c1cccc(Br)c1)c1ccccc1	23.1 µM [falling, single point]	–
COc1cccc2cc(C(=O)Nc3ccccc3C(=O)N3CCOCC3)oc12	4.47 µM [falling, partial curve]	–
O=C(CCN1C(=O)/C(=C/c2cccs2)SC1=S)Nc1ccccn1	2.51 µM [falling, partial curve]	–
Cc1ccc(Cl)c(OCC(=O)NCc2ccco2)c1	0.82 µM [rising, full curve, poor fit]	–
CCCOc1ccc2c(c1)C(=NN=C(N)N)c1cc(OCCC)ccc1-2	35.5 µM [falling, single point]	22.4 µM [rising, partial curve, poor fit]

Arranged by SMILES length (smallest number first): 17 of the compounds above.
SMILES	AC50 [1]	AC50 [2]
O=C(Nc1ccc(F)cc1)c1ccccc1	8.2 µM [falling, partial curve, poor fit]	–
O=C(CCC1COc2ccccc2O1)Nc1cccnc1 (configuration not stated)	2.59 µM [rising, partial curve, poor fit]	–
Cc1ccc(Cl)c(OCC(=O)NCc2ccco2)c1	0.82 µM [rising, full curve, poor fit]	–
Cc1ccsc1C(=O)OCC(=O)N(C)C1CCCCC1	25.9 µM [falling, single point]	–
Cc1ccc(NC(=O)NCc2ccc3c(c2)OCO3)cc1	10.3 µM [falling, partial curve]	–
Cc1cc(C(=O)COc2ccccc2Cl)c(C)n1C1CC1	0.13 µM [rising, full curve, poor fit]	–
CC(C)C(=O)n1nc(-c2cccnc2)nc1NCc1cccs1	15.8 µM [falling, partial curve]	–
COC(=O)[C@H](CC(C)C)NC(=O)NCCCc1ccccc1	18.4 µM [rising, partial curve, poor fit]	–
CCOCCCNC(=O)c1cc2c(=O)n3cccc(C)c3nc2n1C	0.082 µM [rising, full curve, poor fit]	–
O=C(COc1ccc(Br)cc1CNC1CCCCC1)NCCc1ccccc1	35.5 µM [falling, single point]	–
O=C(CCN1C(=O)/C(=C/c2cccs2)SC1=S)Nc1ccccn1	2.51 µM [falling, partial curve]	–
CCCOc1ccc2c(c1)C(=NN=C(N)N)c1cc(OCCC)ccc1-2	35.5 µM [falling, single point]	22.4 µM [rising, partial curve, poor fit]
CCOC(=O)C1=NOC(Cn2cc(C(C)=O)c(=O)[nH]c2=O)C1 (configuration not stated)	1.58 µM [rising, full curve, poor fit]	–
COC(=O)C1=C(C)N(C)C(=O)NC1c1ccc([N+](=O)[O-])o1 (configuration not stated)	11.2 µM [rising, partial curve, poor fit]	–
COc1cccc2sc(N(CCCN(C)C)C(=O)c3sc4ccccc4c3Cl)nc12	18.4 µM [falling, single point]	–
Cc1ccc(/C=C/C(=O)OCC(=O)NCCc2ccc(S(N)(=O)=O)cc2)o1	29.1 µM [rising, single point]	–
Cc1cc(NC(=O)CCCSc2nc(-c3ccco3)cc(C(F)(F)F)n2)n(-c2ccccc2)n1	29.1 µM [falling, single point]	–

(list continues)

SMILES	AC50 [1]	AC50 [2]
Cc1nc2cc(NCc3ccccc3O)ccc2n1Cc1ccccc1	3.98 µM [falling, full curve, poor fit]	–
CC[C@H]1CN2CCc3cc(OC)c(OC)cc3C2C[C@@H]1C[C@H]1NCCc2cc(OC)c(OC)cc21 (some centres not stated)	0.164 µM [falling, full curve, poor fit]	–
O=C(CN1C(=O)c2ccccc2C1=O)c1ccccc1	0.116 µM [falling, full curve, poor fit]	–
CSc1nc2sc(-c3ccccc3)cc2c(=O)n1N	0.447 µM [rising, full curve, poor fit]	–
CCOC(=O)C1CCN(C(=O)/C=C/c2ccccc2)CC1	11.2 µM [falling, partial curve]	–
O=C1NC(=Nc2ccc(O)cc2)S/C1=C/c1ccco1	3.98 µM [falling, partial curve]	–
N/C(=N\OC(=O)c1cccs1)c1ccc(Cl)cc1	5.01 µM [rising, partial curve, poor fit]	–
COc1ccccc1CN(C)CC(=O)Nc1ccc(Cl)cc1C(F)(F)F	0.00411 µM [rising, full curve, poor fit]	–
COc1ccccc1CCC(=O)Nc1ccc2c(c1)CN(Cc1ccc(CO)o1)CC2	10 µM [falling, partial curve, poor fit]	–
CCOC(=O)c1c(C)[nH]c(C(=O)COC(=O)C(C)N2C(=O)C3CCCCC3C2=O)c1C (configuration not stated)	17.8 µM [falling, single point]	–
CCOC(CCn1c(SCc2cccc([N+](=O)[O-])c2)nc2ccccc2c1=O)OCC	16.4 µM [rising, partial curve, poor fit]	–
Cc1nc(N=C(N)N)nc2c(C)cccc12	10 µM [falling, partial curve]	–
CCNc1nc(N)c(C(=O)c2ccc(Cl)s2)s1	1.16 µM [falling, full curve, poor fit]	3.66 µM [rising, partial curve, poor fit]
O=C(NCc1cccs1)c1cccnc1SCCS(=O)(=O)c1ccc(C(F)(F)F)cn1	10 µM [falling, partial curve, poor fit]	–
CCC(=O)NC(=S)Nc1ccc(NC(=O)c2ccc([N+](=O)[O-])cc2)cc1	0.00517 µM [rising, full curve, poor fit]	–
CC1=C(C(N)=O)C(c2cccs2)n2nc(-c3cccc(Cl)c3)nc2N1 (configuration not stated)	1.41 µM [falling, full curve]	–
CCC(C)(C)C1CCc2[nH]nc(C(=O)NC3CCCC3)c2C1 (configuration not stated)	5.17 µM [rising, single point]	–
CC(Sc1nnc(Cc2cccs2)n1C)C(=O)Nc1ccc(C(N)=O)cc1 (configuration not stated)	23.1 µM [rising, single point]	–
COc1ccc(OC)c(NC(=O)C(C)Oc2ccc(Br)cc2)c1 (configuration not stated)	–	14.1 µM [rising, partial curve, poor fit]
O=C(CCSCc1ccc(Cl)cc1)NCc1ccc(F)cc1Cl	2.51 µM [falling, partial curve]	–

Whole records as entered above. Order of values: AC50 [1] | AC50 [2]
CCNc1nc(N)c(C(=O)c2ccc(Cl)s2)s1 is listed with 1.16 µM [falling, full curve, poor fit] | 3.66 µM [rising, partial curve, poor fit]
CCC(C)(C)C1CCc2[nH]nc(C(=O)NC3CCCC3)c2C1 (configuration not stated) is listed with 5.17 µM [rising, single point] | –
